The source of these data is article PMC6678495.

Sequences of proteins named here, by UniProt entry; tags and fusion partners are left off.
UniProt Q9QZR5: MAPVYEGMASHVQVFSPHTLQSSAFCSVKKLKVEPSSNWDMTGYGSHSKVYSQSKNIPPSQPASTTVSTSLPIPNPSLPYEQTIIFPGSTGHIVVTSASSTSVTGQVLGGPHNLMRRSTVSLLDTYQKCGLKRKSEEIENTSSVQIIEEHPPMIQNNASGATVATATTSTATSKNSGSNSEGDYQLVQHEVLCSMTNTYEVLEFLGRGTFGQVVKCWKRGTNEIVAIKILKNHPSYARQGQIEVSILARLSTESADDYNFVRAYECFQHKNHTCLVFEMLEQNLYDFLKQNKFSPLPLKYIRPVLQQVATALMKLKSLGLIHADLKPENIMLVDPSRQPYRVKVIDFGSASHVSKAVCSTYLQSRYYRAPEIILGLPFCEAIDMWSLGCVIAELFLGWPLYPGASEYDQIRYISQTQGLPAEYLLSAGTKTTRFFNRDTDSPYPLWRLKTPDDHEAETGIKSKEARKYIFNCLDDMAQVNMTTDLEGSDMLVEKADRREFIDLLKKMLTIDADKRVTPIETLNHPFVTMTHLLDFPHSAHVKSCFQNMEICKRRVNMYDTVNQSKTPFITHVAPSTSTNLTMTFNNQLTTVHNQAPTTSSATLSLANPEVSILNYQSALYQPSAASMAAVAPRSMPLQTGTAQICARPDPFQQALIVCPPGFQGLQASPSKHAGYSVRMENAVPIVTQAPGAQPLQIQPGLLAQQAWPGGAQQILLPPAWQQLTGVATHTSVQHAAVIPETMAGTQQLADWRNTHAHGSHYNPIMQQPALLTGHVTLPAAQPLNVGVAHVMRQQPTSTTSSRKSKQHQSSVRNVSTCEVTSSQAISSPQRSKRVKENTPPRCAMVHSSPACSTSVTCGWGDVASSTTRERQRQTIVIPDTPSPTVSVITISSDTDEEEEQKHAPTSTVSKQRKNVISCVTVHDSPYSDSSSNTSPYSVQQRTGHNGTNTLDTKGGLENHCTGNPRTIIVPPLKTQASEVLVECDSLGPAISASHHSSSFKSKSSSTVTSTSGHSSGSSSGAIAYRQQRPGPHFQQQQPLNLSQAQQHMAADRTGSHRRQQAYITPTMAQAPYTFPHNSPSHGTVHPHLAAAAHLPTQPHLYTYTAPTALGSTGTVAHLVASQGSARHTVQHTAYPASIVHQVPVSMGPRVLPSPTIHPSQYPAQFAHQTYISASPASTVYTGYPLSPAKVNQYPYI

No constants are given. Whether binding was seen depends on the method and setting. For part of these data: Binding seen in cells or lysates may run through a third protein. Some results given as binding are weak or reduced against the parent protein; the word gives no strength. Tags and fused reporters may be left off the sequences shown.

Assay [1] deals with T1, flag-myc-tagged spastin (UniProt Q9UBP0).
T1 sequence: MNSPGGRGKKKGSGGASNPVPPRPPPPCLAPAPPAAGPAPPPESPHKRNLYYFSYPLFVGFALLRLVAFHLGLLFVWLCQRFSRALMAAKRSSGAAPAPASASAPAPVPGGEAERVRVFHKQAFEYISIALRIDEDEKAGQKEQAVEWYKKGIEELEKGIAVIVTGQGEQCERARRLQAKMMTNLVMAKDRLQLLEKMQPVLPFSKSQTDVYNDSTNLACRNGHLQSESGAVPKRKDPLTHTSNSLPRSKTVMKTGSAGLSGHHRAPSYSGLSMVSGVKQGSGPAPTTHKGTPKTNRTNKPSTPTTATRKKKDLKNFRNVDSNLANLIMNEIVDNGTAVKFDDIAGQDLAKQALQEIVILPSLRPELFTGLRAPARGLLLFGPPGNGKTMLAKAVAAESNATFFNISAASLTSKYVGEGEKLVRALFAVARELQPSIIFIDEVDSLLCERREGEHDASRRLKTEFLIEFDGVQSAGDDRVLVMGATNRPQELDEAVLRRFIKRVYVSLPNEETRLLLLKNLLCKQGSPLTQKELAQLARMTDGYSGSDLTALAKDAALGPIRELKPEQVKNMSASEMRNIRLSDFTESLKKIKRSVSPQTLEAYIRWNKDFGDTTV
Description: co-IP; HeLa cells transiently co-expressing flag-myc-spastin and GFP-HIPK2; non-denaturating lysis buffer (50 mM Tris-HCl pH 8, 150 mM NaCl, 1% NP40, 5 mM EDTA); IP with anti-Flag or anti-GFP, Western blot. Background: A western blot detects proteins with antibodies after separation by electrophoresis.

For assay [2], the target named is GST-HIPK2 (UniProt Q9QZR5). Description: pull-down; GST-HIPK2 (purified by GST pull-down) incubated with 100 ng of recombinant His6-tagged spastin 79-310 in 50 mM Tris-HCl pH 7.5, 150 nM NaCl (so in the source); bound spastin analysed by Western blot; both purified.
In assay [3] the target is GFP-tagged HIPK2 (mouse) (UniProt Q9QZR5). Description: co-IP; HeLa cells transiently co-expressing flag-myc-spastin and GFP-HIPK2; non-denaturating lysis buffer (50 mM Tris-HCl pH 8, 150 mM NaCl, 1% NP40, 5 mM EDTA); IP with anti-Flag or anti-GFP, Western blot.

Take “GFP-tagged HIPK2 (from UniProt Q9QZR5 1-1196) (enzyme)”: the binding result in assay [1] is recorded as “binds”.

B1: His6-tagged spastin 79–310 (domain or fragment, UniProt Q9UBP0 79-310)
chain: CQRFSRALMAAKRSSGAAPAPASASAPAPVPGGEAERVRVFHKQAFEYISIALRIDEDEKAGQKEQAVEWYKKGIEELEKGIAVIVTGQGEQCERARRLQAKMMTNLVMAKDRLQLLEKMQPVLPFSKSQTDVYNDSTNLACRNGHLQSESGAVPKRKDPLTHTSNSLPRSKTVMKTGSAGLSGHHRAPSYSGLSMVSGVKQGSGPAPTTHKGTPKTNRTNKPSTPTTATRK
As for B1, in assay [2], the binding result is “binds”.

B2: flag-myc-tagged spastin (protein, UniProt Q9UBP0 1-616)
chain: MNSPGGRGKKKGSGGASNPVPPRPPPPCLAPAPPAAGPAPPPESPHKRNLYYFSYPLFVGFALLRLVAFHLGLLFVWLCQRFSRALMAAKRSSGAAPAPASASAPAPVPGGEAERVRVFHKQAFEYISIALRIDEDEKAGQKEQAVEWYKKGIEELEKGIAVIVTGQGEQCERARRLQAKMMTNLVMAKDRLQLLEKMQPVLPFSKSQTDVYNDSTNLACRNGHLQSESGAVPKRKDPLTHTSNSLPRSKTVMKTGSAGLSGHHRAPSYSGLSMVSGVKQGSGPAPTTHKGTPKTNRTNKPSTPTTATRKKKDLKNFRNVDSNLANLIMNEIVDNGTAVKFDDIAGQDLAKQALQEIVILPSLRPELFTGLRAPARGLLLFGPPGNGKTMLAKAVAAESNATFFNISAASLTSKYVGEGEKLVRALFAVARELQPSIIFIDEVDSLLCERREGEHDASRRLKTEFLIEFDGVQSAGDDRVLVMGATNRPQELDEAVLRRFIKRVYVSLPNEETRLLLLKNLLCKQGSPLTQKELAQLARMTDGYSGSDLTALAKDAALGPIRELKPEQVKNMSASEMRNIRLSDFTESLKKIKRSVSPQTLEAYIRWNKDFGDTTV
As for B2, in assay [3], the binding entry is “binds”.
